Measured values reported in PubChem BioAssay AID2685 (National Center for Advancing Translational Sciences (NCATS), 2010).
Some of the results follow. These are further read-outs of the screen, such as a control signal, another cell line or another target. No call is given for them. Compounds called inactive in the main read-out are mostly missing here. Potencies come from curve fits of mixed quality, noted in brackets.

Experiment: qHTS Assay for Lipid Storage Modulators in Drosophila S3 Cells;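 for cell number change: cells counted by Cell Tracker Red CMTPX staining in the red channel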
Conditions: BODIPY lipid droplet fluorescence, 18-24 h; for cell number change: measured here: cell count max response, cells fed with added oleic acid
Summary of the method: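 Drosophila S3 cells got compounds at several concentrations plus oleic acid (400 uM solution). Laser-scanning cytometry with 488 nm excitation read lipid droplets at 500-530 nm and cells at 575-640 nm. Percent activity was relative to 20 uM Triacsin C.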

[1] = measured here: cell number channel AC50, cells fed with added oleic acid
[2] = measured here: lipid fluorescence (Fed channel) AC50, cells fed with added oleic acid

SMILES | cell number change | AC50 [1] | AC50 [2]
Cc1ccc(S(=O)(=O)N2[C@@H](c3cccc(Cl)c3)C(C(=O)O)=CC[C@H]2c2ccc3c(c2)OCO3)cc1 | 31.9% | 0.184 µM [rising, full curve, poor fit] | 11.6 µM [rising, single point]
COc1ccccc1C(=O)NCC(=O)N=Nc1c(O)n(C(C)C)c2ccccc12 | -8.96% |  | 0.651 µM [falling, full curve, poor fit]
C=CCOC(=O)C1=C[C@H](C2CCCCC2)[C@@H](CCCO)[C@H](OCC)O1 | -34.7% | 29.1 µM [falling, single point] | 29.1 µM [falling, single point]
CSCCC(NC(N)=O)C(=O)Nc1cccc(C#N)c1 (stereo not drawn) | 18.9% |  | 
CCCNC(=O)c1ccccc1SCc1c(C)noc1C | 21.1% |  | 
O=C(c1snnc1-c1ccccc1)N1CCOCC1 | 26.6% |  | 6.51 µM [rising, single point]
Cc1cc(NS(=O)(=O)c2ccc(NC(=O)Nc3cccc(C(F)(F)F)c3)cc2)no1 | -12.7% |  | 6.51 µM [rising, single point]
O=C(CN(CCc1ccccc1)C(=O)CN1C(=O)COc2ccccc21)NCc1ccco1 |  |  | 2.59 µM [rising, partial curve]
Fc1cccc(Cl)c1CSc1nnc(CN2CCOCC2)n1-c1ccccc1 | 4.07% |  | 32.6 µM [rising, single point]
Nc1nonc1-n1nnc(C(=O)N/N=C/c2ccccc2Cl)c1COc1ccc(F)cc1 |  | 0.103 µM [rising, full curve] | 0.092 µM [rising, full curve, poor fit]
O=C(Nc1cccnc1)c1ccc(Cl)c(S(=O)(=O)N2CCc3ccccc32)c1 | 33.9% | 0.82 µM [rising, full curve, poor fit] | 
O=S(=O)(c1ccc(SCc2cccc(Cl)c2)nc1)N1CCCC1 | -5.57% |  | 0.0058 µM [falling, full curve, poor fit]
Nc1nc(Nc2ccccc2)n[nH]1 | 21.2% |  | 0.116 µM [falling, full curve, poor fit]
Cc1cc(C)c2cc(CN(CCO)C(=O)Nc3ccc(F)cc3)c(=O)[nH]c2c1 |  | 1.84 µM [rising, partial curve] | 1.84 µM [rising, partial curve]
COc1ccc(C(=O)OCC(=O)Nc2sccc2C(N)=O)cc1[N+](=O)[O-] | 18.9% |  | 1.3 µM [rising, full curve, poor fit]
COc1ccc(S(=O)(=O)N2CCCC2C(=O)Nc2ccc(O)cc2)cc1 (stereo not drawn) | -71.6% | 29.1 µM [falling, single point] | 
CN1CCN(NC(=O)Nc2cc(Cl)cc(Cl)c2)CC1 |  |  | 4.11 µM [falling, full curve]
Cc1ccc(NC(=O)c2oc3ccc(S(=O)(=O)N4CCOCC4)cc3c2C)c(C)c1 | 3.02% |  | 
COc1cccc(-c2cc(C(=O)N3CCCc4ccccc43)no2)c1 |  | 6.51 µM [rising, single point] | 23.1 µM [rising, single point]
C[C@H]1CN=C(Nc2ccccc2)N1CCC1CCCC1 | 14.7% |  | 29.1 µM [falling, single point]
Cc1ccc(NC(=O)CSc2nnc(C3CC3)n2CC2CCCO2)cc1C (stereo not drawn) | 17.9% |  | 25.9 µM [rising, partial curve, poor fit]

SMILES | cell number change | AC50 [1] | AC50 [2]
CN(CC(=O)Nc1c(Cl)cccc1Cl)C(=O)c1ccc(-n2cncn2)c([N+](=O)[O-])c1 | -14.1% |  | 6.51 µM [rising, single point]
CCCCc1ccc(N2C(=NC(=O)C3CCCO3)SC3CS(=O)(=O)CC32)cc1 (stereo not drawn) | 50.5% | 1.84 µM [rising, partial curve, poor fit] | 
COc1ccc(C(=O)CSc2nnc(Cn3cnc4ccccc43)o2)cc1 | -35.6% | 13 µM [falling, partial curve] | 23.1 µM [falling, partial curve, poor fit]
O=C(CCn1nc(-c2ccccc2)c2ccccc2c1=O)N1CCN(c2ccccc2)CC1 | -14.1% |  | 0.259 µM [rising, full curve, poor fit]
CC1=CCC2C(=O)N(c3ccc(C)cc3)C(=O)C2C1 (stereo not drawn) |  |  | 0.116 µM [rising, full curve, poor fit]
CCCCNC(=O)Nc1nc2ccccc2s1 | -12.6% |  | 
CCNc1nc(Cl)nc(NCCOc2ccc(C)cc2)n1 |  | 6.51 µM [falling, single point] | 6.51 µM [falling, single point]
Cc1cc(-c2nnc(-c3ccccc3)c(-c3ccccc3)n2)c(C)o1 | 8.63% |  | 0.116 µM [rising, single point]
CC(C)Cn1c(N)c(C(=O)COC(=O)c2ccc([N+](=O)[O-])o2)c(=O)n(C)c1=O | -45.1% | 32.6 µM [falling, partial curve, poor fit] | 
O=C(/C=C/Nc1ccccc1O)c1ccco1 | -1.17% |  | 0.13 µM [rising, full curve, poor fit]
O=C(NCc1ccccc1)C1CCCN1C(=O)Nc1ccccc1[N+](=O)[O-] (stereo not drawn) |  |  | 0.651 µM [falling, partial curve, poor fit]
COc1cc2c(cc1OC)CN(C(=O)CN(C)S(=O)(=O)c1ccc(NC(C)=O)cc1)CC2 | 2.63% |  | 
Cc1ccccc1-c1nc(CN2CCN(C(=O)c3ccco3)CC2)c(C)o1 |  |  | 2.24 µM [rising, partial curve]
Cc1ccc(NC(=O)c2c(-c3ccccc3Cl)noc2C)nc1 | 23.2% |  | 0.13 µM [rising, full curve]
COc1ccc(OCCOC(=O)CNC(=O)c2ccc(Cl)cc2Cl)cc1 | -21.9% |  | 0.651 µM [rising, full curve]
CCCN(CCC)c1nc(-c2ccccn2)nc2ccccc12 | -41.5% |  | 10.3 µM [falling, single point]
O=C(NC1CCCCC1)N1CCN(c2ccc([N+](=O)[O-])cc2)CC1 | -28.7% |  | 29.1 µM [falling, single point]
O=C(NCc1ccccn1)c1ccc(NC(=O)c2ccco2)cc1 | 7.42% |  | 2.59 µM [rising, full curve, poor fit]
O=C(Nc1ccc(Oc2cccnc2)cc1)C1CCN(Cc2ccc(F)cc2)CC1 | 24.1% |  | 
COC(=O)C1CCN(CC(=O)NC(=O)NC2CCCCC2)CC1 | 11% |  | 
O=C1C2C3C=CC(C3)C2C(=O)N1c1ccncc1 (stereo not drawn) | 18% |  | 4.11 µM [rising, partial curve]

SMILES | cell number change | AC50 [1] | AC50 [2]
O=[N+]([O-])c1cccc(-c2c(-c3ccccc3)ncc3cc(F)ccc23)c1 | -17.7% |  | 
CC1CC(C)CN(C(=O)c2cccc(S(=O)(=O)N3c4ccccc4CC3C)c2)C1 (stereo not drawn) | 66.5% | 11.6 µM [rising, partial curve] | 
Cc1nc2ccccc2nc1N1CCC(C)CC1 |  | 1.03 µM [falling, full curve, poor fit] | 0.651 µM [falling, full curve]
COc1ccc(-c2csc3nc[nH]c(=O)c23)cc1 | 45.1% | 16.4 µM [rising, single point] | 
Nc1ccc(C(=O)N/N=C/c2cccc(Oc3ccccc3)c2)cc1 | -22.4% |  | 
Cn1c(=O)oc2cc(S(=O)(=O)NCCC(=O)NCCc3ccccc3)ccc21 | -37.7% |  | 
CC(=O)N1CCN=C1SCc1cccc(C)c1 | 1.18% |  | 
CCOc1ccc(-n2c(Cc3cc(=O)[nH]c(=O)[nH]3)nnc2SCC(=O)OC)cc1 | 13.8% |  | 
c1ccc2c(c1)CCCc1cc(NCCN3CCOCC3)nnc1-2 | 21.5% |  | 29.1 µM [rising, single point]
COCCN(Cc1cccs1)S(=O)(=O)c1csc(C(N)=O)c1 | -35.2% | 29.1 µM [falling, single point] | 
CS(=O)(=O)c1ccc(Cl)c(NC(=O)c2cccc(-n3cnnn3)c2)c1 |  | 6.51 µM [rising, single point] | 
O=c1c2ccccc2nc2n1C(CSCc1ccccc1)CS2 (stereo not drawn) |  |  | 29.1 µM [falling, single point]
CN1CCN(C(=O)C2=C[C@@H](C3CC3)C[C@@H](OCc3ccc(CO)cc3)O2)CC1 |  |  | 0.00461 µM [falling, full curve, poor fit]
Cc1cc(NC(=O)CC(F)(F)F)n(-c2ccccc2)n1 | -23.8% |  | 
NC(=O)c1ccccc1NC(=O)CS(=O)(=O)Cc1ccccc1 | -5.39% |  | 6.51 µM [rising, single point]
C=CCNc1nc(Nc2ccc(OC)cc2)nc(OC)n1 | 71.5% | 6.51 µM [rising, partial curve] | 
CCOC(=O)c1ccc(N2NC(=O)/C(=C/c3ccc(OC(=O)c4ccco4)c(OC)c3)C2=O)cc1 | -5.39% |  | 
O=C1c2oc3ccc(Cl)cc3c(=O)c2C(c2ccccn2)N1CCCN1CCOCC1 (stereo not drawn) | -6.86% | 0.259 µM [falling, partial curve, poor fit] | 0.651 µM [falling, full curve, poor fit]
CC1(C)NC(=O)N(CCCCOc2ccc(Cl)cc2)C1=O |  |  | 6.51 µM [falling, single point]
CCN(Cc1nc2cc(Cl)ccc2c(=O)[nH]1)C(=O)c1cccc(OCc2c(C)noc2C)c1 | -6.63% |  | 0.00461 µM [falling, full curve, poor fit]
CCc1nnc(NS(=O)(=O)c2ccc(NC(=S)Nc3ccc(F)cc3)cc2)s1 | 6.05% | 6.51 µM [rising, single point] | 14.6 µM [rising, single point]
